Assays:
[1] = biological target: Cytochrome P450 2C9 (Homo sapiens, UniProt P11712)
[2] = biological target: Cytochrome P450 2C19 (Homo sapiens, UniProt P33261)
[3] = biological target: T1, Glucocorticoid receptor (Homo sapiens, UniProt P04150); assay: biochemical
T1 sequence (P04150 whole entry): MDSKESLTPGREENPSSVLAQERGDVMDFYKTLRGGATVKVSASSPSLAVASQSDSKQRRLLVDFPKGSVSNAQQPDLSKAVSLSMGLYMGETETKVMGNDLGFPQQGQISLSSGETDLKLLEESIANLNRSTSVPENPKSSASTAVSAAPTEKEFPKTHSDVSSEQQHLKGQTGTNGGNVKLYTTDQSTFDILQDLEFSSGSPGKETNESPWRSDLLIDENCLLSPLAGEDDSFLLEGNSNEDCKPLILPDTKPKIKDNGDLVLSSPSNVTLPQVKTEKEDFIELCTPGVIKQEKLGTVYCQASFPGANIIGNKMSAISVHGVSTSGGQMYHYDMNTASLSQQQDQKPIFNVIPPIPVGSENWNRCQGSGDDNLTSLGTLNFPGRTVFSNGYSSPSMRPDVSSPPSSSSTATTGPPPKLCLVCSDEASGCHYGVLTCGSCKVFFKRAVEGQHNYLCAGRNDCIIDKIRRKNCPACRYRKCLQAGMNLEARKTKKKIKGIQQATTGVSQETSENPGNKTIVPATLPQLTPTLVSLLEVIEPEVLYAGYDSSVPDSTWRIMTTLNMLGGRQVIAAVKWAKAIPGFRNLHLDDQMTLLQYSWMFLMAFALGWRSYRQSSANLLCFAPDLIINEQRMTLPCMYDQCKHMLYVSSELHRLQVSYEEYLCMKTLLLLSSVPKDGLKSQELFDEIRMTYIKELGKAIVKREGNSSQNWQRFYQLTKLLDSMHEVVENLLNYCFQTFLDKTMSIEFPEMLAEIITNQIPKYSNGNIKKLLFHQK

The chains behind the UniProt entries cited, without tags or fusion partners.
UniProt P11712, whole entry: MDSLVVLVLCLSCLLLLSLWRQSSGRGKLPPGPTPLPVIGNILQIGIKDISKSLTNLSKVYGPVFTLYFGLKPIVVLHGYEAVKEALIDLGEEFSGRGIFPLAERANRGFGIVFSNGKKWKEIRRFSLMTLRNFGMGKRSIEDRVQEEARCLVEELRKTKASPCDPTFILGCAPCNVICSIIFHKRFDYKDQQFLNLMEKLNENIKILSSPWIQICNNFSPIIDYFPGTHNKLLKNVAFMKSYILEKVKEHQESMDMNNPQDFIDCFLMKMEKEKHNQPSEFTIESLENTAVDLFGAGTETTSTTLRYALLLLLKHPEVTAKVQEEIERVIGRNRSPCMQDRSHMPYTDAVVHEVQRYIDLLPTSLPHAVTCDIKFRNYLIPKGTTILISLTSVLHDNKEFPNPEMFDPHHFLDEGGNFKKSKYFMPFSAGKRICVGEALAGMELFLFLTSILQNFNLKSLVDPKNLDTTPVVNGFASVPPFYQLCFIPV
UniProt P33261, whole entry: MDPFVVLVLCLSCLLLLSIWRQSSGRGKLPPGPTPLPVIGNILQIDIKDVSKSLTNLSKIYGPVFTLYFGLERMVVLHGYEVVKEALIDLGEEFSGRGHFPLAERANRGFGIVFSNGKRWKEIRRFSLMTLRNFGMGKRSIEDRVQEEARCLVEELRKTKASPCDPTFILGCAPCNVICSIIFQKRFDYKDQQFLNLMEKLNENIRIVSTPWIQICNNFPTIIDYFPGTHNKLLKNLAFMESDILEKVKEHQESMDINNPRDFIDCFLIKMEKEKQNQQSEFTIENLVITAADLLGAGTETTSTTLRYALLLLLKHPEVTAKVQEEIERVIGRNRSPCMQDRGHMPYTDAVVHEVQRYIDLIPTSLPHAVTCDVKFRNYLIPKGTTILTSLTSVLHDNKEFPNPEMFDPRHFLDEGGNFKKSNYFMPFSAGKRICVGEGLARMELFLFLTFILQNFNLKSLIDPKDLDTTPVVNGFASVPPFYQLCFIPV
UniProt P08913, whole entry: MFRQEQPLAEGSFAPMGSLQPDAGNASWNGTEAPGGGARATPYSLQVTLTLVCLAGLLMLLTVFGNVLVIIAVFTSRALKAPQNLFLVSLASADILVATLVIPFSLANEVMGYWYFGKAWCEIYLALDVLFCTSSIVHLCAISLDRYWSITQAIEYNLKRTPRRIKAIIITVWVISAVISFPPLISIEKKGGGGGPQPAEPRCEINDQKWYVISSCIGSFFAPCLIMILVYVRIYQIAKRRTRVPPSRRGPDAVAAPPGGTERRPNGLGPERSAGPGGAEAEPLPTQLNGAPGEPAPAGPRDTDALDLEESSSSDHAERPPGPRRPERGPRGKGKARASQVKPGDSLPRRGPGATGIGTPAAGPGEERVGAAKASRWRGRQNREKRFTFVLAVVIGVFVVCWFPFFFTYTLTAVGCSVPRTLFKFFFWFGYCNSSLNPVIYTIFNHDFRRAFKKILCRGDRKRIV
UniProt P41595, whole entry: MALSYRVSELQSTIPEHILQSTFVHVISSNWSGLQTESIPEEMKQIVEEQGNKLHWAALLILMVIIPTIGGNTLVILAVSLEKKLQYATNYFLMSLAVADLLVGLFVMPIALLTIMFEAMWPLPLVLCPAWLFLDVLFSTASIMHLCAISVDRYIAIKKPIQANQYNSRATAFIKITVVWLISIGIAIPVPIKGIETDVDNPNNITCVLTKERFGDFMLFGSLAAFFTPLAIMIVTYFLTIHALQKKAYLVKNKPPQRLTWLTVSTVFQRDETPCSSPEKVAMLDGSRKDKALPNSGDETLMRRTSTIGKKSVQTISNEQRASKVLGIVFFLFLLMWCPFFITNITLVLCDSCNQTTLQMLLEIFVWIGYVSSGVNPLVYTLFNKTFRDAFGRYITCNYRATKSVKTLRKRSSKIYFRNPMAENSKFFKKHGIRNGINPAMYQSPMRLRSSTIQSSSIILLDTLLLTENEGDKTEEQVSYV

[4] = biological target: Alpha-2A adrenergic receptor (Homo sapiens, UniProt P08913); format: cell membranes, Membrane; settings: sf9
[5] = biological target: 5-hydroxytryptamine receptor 2B (Homo sapiens, UniProt P41595); format: cell membranes, Membrane; settings: cho-k1
Also: in other assays of this panel Not Active means under 50% inhibition at 10 µM.

Clc1ccc(CO/N=C(\Cn2ccnc2)c2ccc(Cl)cc2Cl)c(Cl)c1 [OXICONAZOLE]
IC50 [1]: 3000 nM | IC50 [2]: 40 nM

C[C@H]1C[C@H]2[C@@H]3CCC4=CC(=O)C=C[C@]4(C)[C@@]3(F)[C@@H](O)C[C@]2(C)[C@@]1(O)C(=O)COP(=O)(O)O [BETAMETHASONE PHOSPHORIC ACID]
IC50 [3]: 8.22 nM | Ki [3]: 3.73 nM | IC50 [4]: Not Active | IC50 [5]: Not Active

— ChEMBL document CHEMBL1909046, “DrugMatrix in vitro pharmacology data”
